Results from article doi:10.1101/2024.12.18.629124.
These are yes or no findings as the source states them, for the method shown. Some results given as binding are weak or reduced against the parent protein; the word gives no strength.

By UniProt entry, the sequences of proteins in these tests, tags left out.
UniProt Q9V535, whole entry: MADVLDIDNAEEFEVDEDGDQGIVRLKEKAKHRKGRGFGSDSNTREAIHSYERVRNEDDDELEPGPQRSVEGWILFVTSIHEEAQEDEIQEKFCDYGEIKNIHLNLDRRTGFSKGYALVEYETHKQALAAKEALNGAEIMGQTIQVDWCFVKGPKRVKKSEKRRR
UniProt P49028, whole entry: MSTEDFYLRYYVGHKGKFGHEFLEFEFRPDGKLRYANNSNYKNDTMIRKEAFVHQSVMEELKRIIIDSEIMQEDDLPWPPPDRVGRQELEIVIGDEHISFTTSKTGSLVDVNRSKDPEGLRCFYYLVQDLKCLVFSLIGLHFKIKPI

Target: Y14 (Drosophila) (UniProt Q9V535)
Assay: co-purification

**Q.** For Mago (from UniProt P49028 1-147), which binding is on record?
**A.** binds
